Test: Diffusion testing (dye leaching from dyed tresses into water, UV-vis absorbance)
Conditions: normalized absorbance
Method: The compositions tested were formulated by mixing a tint component according to the formulation below with a developer component in a 1:1 ratio. The developer component is a commercially available Welloxon developer at 6% (20 vol) peroxide concentration. In all the tests, white hair was used (1.5 g tresses). 3 g tint component+3 g developer component were applied for each switch for 30 minutes at 30° C. The tresses were rinsed for 2 minutes including 30 seconds shampoo.
The diffusion testing protocol measures the ability for the dye to stay within the hair when the fibers are wet. In this test, dyed tresses of hair are prepared as indicated above and then separately immersed in a 1 litre beaker containing 900.0 g water. The beaker is placed in the center of a stir plate and the tress is attached to a clamping device that is used to lower the tress into the beaker. When in the beaker, the tress remains above the stir bar in the center of the beaker, the tress is lowered until the water line is at the top of the hair tress. The stir plate is turned on so that the stir bar would spin at approximately 100 rpm. All tresses are tested at the same spin rate. The tress is left in the beaker with stir bar rotating for three hours. After three hours, the tresses are removed. The absorbance spectrum of the solution is measured using a UV-vis spectrophotometer to characterize the amount of dye that diffused out of the hair into the solution at regular time interval. A full absorbance spectrum from 400 to 700 nm is measured and the absorbance at the peak maximum is measured for each case.
The absorbance values for the C5 and C6 alkyldiaminopyrazole combinations are normalized and account for differences in starting dye concentrations in the hair fibers.
The absorbance values for the C5 and C6 alkyldiaminopyrazole combinations are normalized and account for differences in starting dye concentrations in the hair fibers

Row | SMILES | intercept of equation of line (absorbance of the solution) (FIG. 1, tint A) | intercept of equation of line (absorbance of the solution) (FIG. 2, tint B)
1 | CCCCCn1ncc(N)c1N [C5, 4,5-diamino-1-pentylpyrazole] | 0.0332 | 0.1551
2 | CCCCCCn1ncc(N)c1N [C6, 1-hexyl-4,5-diaminopyrazole] | 0.0217 | 0.024

Source: patent US20120210519A1, “Oxidative Dyeing Compositions Comprising an 1-Hexyl/Heptyl-4,5-diaminopyrazole and a 2-Aminophenol and Derivatives Thereof” (priority 2011, published 2012)
